Assay results as given in PubChem BioAssay AID248 (DTP/NCI, 2004).
The list is a part of this screen's results and no random one: it is rich in T/C values a quarter to a half above the control, in often repeated tests (any T/C) and in doses without a T/C. Further doses and runs are listed elsewhere. T/C is the treated group as % of the vehicle group. Some doses have a count of surviving animals in place of a T/C: the source holds a T/C of zero for them, seemingly a mark for toxic or unscored doses. Some survivor counts are full or nearly so, which does not show that the dose was tolerated: the source hardly ever lists a survival T/C far under the control, and the zero likely stands for such cases as well. Survivors were counted at the toxicity check, usually on the fifth day, unless a day is given; later deaths do not show. Schedule codes are those of the source, read here as Q, the interval in days (D) or hours (H), X, the number of doses. Some doses were run more than once; the results are listed from low to high. For survival time, this PubChem deposit counts one and a half times the control or more as active, and values a quarter to a half above the control carry no call in these data; other NCI protocols may use other cut-offs. Some T/C values carry the count of animals alive at the toxicity check (mostly the fifth day); without a count, all were alive then. Marks such as (2×) stand for listed records that agree.

System: L1210 leukemia ip in BDF1 mice, survival T/C
Assay: NCI In Vivo Anticancer Drug Screen. Data for tumor model L1210 Leukemia (intraperitoneal) in B6D2F1 (BDF1) mice
Settings: higher T/C = longer survival
[1] = T/C endpoint: mean survival time, dose: 400.0 mg/kg/injection, schedule: Q01DX001 (ip), vehicle: acetone
[2] = T/C endpoint: mean survival time, dose: 200.0 mg/kg/injection, schedule: Q01DX009 (ip), vehicle: Klucel (hydroxypropylcellulose) (HPC)
[3] = T/C endpoint: mean survival time, dose: 50.0 mg/kg/injection, schedule: Q01DX009 (ip), vehicle: Klucel (hydroxypropylcellulose) (HPC)
[4] = T/C endpoint: mean survival time, dose: 100.0 mg/kg/injection, schedule: Q01DX009 (ip), vehicle: Klucel (hydroxypropylcellulose) (HPC)
[5] = T/C endpoint: mean survival time, dose: 400.0 mg/kg/injection, schedule: Q01DX009 (ip), vehicle: Klucel (hydroxypropylcellulose) (HPC)
[6] = T/C endpoint: mean survival time, dose: 400.0 mg/kg/injection, schedule: Q04DX003 (ip), vehicle: Klucel (hydroxypropylcellulose) (HPC)
[7] = T/C endpoint: mean survival time, dose: 400.0 mg/kg/injection, schedule: Q04DX002 (ip), vehicle: Klucel (hydroxypropylcellulose) (HPC)
[8] = T/C endpoint: mean survival time, dose: 50.0 mg/kg/injection, schedule: Q01DX009 (ip), vehicle: carboxymethylcellulose (CMC)

With `CC(CCC/C=C/CCCN(C)C(=N)N)CC(C)C1OC(=O)C(C)C(O)/C=C/C(C)C(O)C(C)C(O)C(C)C(O)CCCC(O)CC2(O)OC(CC(OC(=O)CC(=O)O)CC(O)CC(O)C(C)C(O)/C=C/C=C/C1C)CC(O)C2O` (stereo not drawn) the survivor count (T/C endpoint: mean survival time, dose: 0.19 mg/kg/injection, schedule: Q01DX001 (ip), vehicle: saline) was 0 of 6, the survivor count (T/C endpoint: mean survival time, dose: 0.39 mg/kg/injection, schedule: Q01DX001 (ip), vehicle: saline) was 0 of 6 and the survivor count (T/C endpoint: mean survival time, dose: 0.78 mg/kg/injection, schedule: Q01DX001 (ip), vehicle: saline) was 0 of 6. For the same compound, the survivor count (T/C endpoint: mean survival time, dose: 1.56 mg/kg/injection, schedule: Q01DX001 (ip), vehicle: saline) was 2 of 6, the survivor count (T/C endpoint: mean survival time, dose: 3.12 mg/kg/injection, schedule: Q01DX001 (ip), vehicle: saline) was 0 of 6 and the survivor count (T/C endpoint: mean survival time, dose: 3.2 mg/kg/injection, schedule: Q04DX003 (ip), vehicle: saline) was 6 of 6. For the same compound, the survivor count (T/C endpoint: mean survival time, dose: 6.25 mg/kg/injection, schedule: Q01DX001 (ip), vehicle: saline) was 0 of 6, the survivor count (T/C endpoint: mean survival time, dose: 7.3 mg/kg/injection, schedule: Q04DX003 (ip), vehicle: saline) was 6 of 6 and the survivor count (T/C endpoint: mean survival time, dose: 10.0 mg/kg/injection, schedule: Q04DX003 (ip), vehicle: saline with Tween-80) was 2 of 6. The survivor count (T/C endpoint: mean survival time, dose: 12.5 mg/kg/injection, schedule: Q01DX001 (ip), vehicle: saline) was 3 of 6, the survivor count (T/C endpoint: mean survival time, dose: 16.0 mg/kg/injection, schedule: Q04DX003 (ip), vehicle: saline with Tween-80) was 1 of 6 and the survivor count (T/C endpoint: mean survival time, dose: 24.0 mg/kg/injection, schedule: Q04DX003 (ip), vehicle: saline with Tween-80) was 0 of 6. The survivor count (T/C endpoint: mean survival time, dose: 25.0 mg/kg/injection, schedule: Q01DX001 (ip), vehicle: saline) was 3 of 6, the survivor count (T/C endpoint: mean survival time, dose: 50.0 mg/kg/injection, schedule: Q01DX001 (ip), vehicle: saline) was 0 of 6 and the survivor count (T/C endpoint: mean survival time, dose: 100.0 mg/kg/injection, schedule: Q01DX001 (ip), vehicle: acetone) was 0 of 6. The survivor count (T/C endpoint: mean survival time, dose: 200.0 mg/kg/injection, schedule: Q01DX001 (ip), vehicle: acetone) was 0 of 6 and the survivor count [1] was 0 of 6.
With `Cc1ccc2c(c1[N+](=O)[O-])C(=O)c1ccccc1C2=O` the survivor count [2] was 1 of 3.
For `CN(C)Cc1cccc(N)c1`, the survivor count (T/C endpoint: mean survival time, dose: 100.0 mg/kg/injection, schedule: Q01DX009 (ip), vehicle: water) was 6 of 6, the survivor count (T/C endpoint: mean survival time, dose: 200.0 mg/kg/injection, schedule: Q04DX003 (ip), vehicle: water) was 1 of 6 and the survivor count (T/C endpoint: mean survival time, dose: 400.0 mg/kg/injection, schedule: Q04DX003 (ip), vehicle: water) was 0 of 6.
In the case of `O=[N+]([O-])c1cc(S(=O)(=O)OCC2CO2)ccc1Cl` (stereo not drawn), the survivor count [3] is reported as 2 of 6, the survivor count [4] is reported as 0 of 6 and the survivor count [2] is reported as 0 of 6. For the same compound, the survivor count [5] was 0 of 6.
For `ClCC1CC2CC1C1OC21` (stereo not drawn), the survivor count (T/C endpoint: mean survival time, dose: 200.0 mg/kg/injection, schedule: Q01DX001 (ip), vehicle: saline) was 0 of 4 and the survivor count (T/C endpoint: mean survival time, dose: 400.0 mg/kg/injection, schedule: Q01DX001 (ip), vehicle: saline) was 0 of 4.
In the case of `COc1ccc(CC(C)N)cc1OC` (stereo not drawn), the survivor count (T/C endpoint: mean survival time, dose: 400.0 mg/kg/injection, schedule: Q04DX002 (ip), vehicle: saline) is reported as 0 of 3.
In the case of `CCC/C(C)=N/Nc1ccccn1`, the survivor count (T/C endpoint: mean survival time, dose: 100.0 mg/kg/injection, schedule: Q01DX009 (ip), vehicle: acetone) is reported as 0 of 6, the survivor count (T/C endpoint: mean survival time, dose: 200.0 mg/kg/injection, schedule: Q04DX003 (ip), vehicle: acetone) is reported as 5 of 6 and the survivor count [1] is reported as 0 of 6.
In the case of `CO[C@H]1C[C@H](O[C@H]2CC[C@]3(C=O)[C@H]4CC[C@]5(C)[C@@H](C6=CC(=O)OC6)CC[C@]5(O)[C@@H]4CC[C@]3(O)C2)O[C@H](C)[C@H]1O[C@@H]1O[C@H](CO)[C@@H](O)[C@H](O)[C@H]1O`, the survivor count (T/C endpoint: mean survival time, dose: 1.0 mg/kg/injection, schedule: Q01DX001 (ip), vehicle: saline) is reported as 0 of 4, the survivor count (T/C endpoint: mean survival time, dose: 2.0 mg/kg/injection, schedule: Q01DX001 (ip), vehicle: saline) is reported as 2 of 4 and the survivor count (T/C endpoint: mean survival time, dose: 2.0 mg/kg/injection, schedule: Q04DX003 (ip), vehicle: saline) is reported as 4 of 6. The survivor count (T/C endpoint: mean survival time, dose: 4.0 mg/kg/injection, schedule: Q01DX015 (ip), vehicle: carboxymethylcellulose (CMC)) was 1 of 6, the survivor count (T/C endpoint: mean survival time, dose: 4.0 mg/kg/injection, schedule: Q04DX003 (ip), vehicle: saline) was 0 of 6 and the survivor count (T/C endpoint: mean survival time, dose: 5.0 mg/kg/injection, schedule: Q01DX001 (ip), vehicle: saline) was 0 of 4. For the same compound, the survivor count (T/C endpoint: mean survival time, dose: 10.0 mg/kg/injection, schedule: Q01DX001 (ip), vehicle: saline) was 0 of 4, the survivor count (T/C endpoint: mean survival time, dose: 20.0 mg/kg/injection, schedule: Q01DX001 (ip), vehicle: saline) was 0 of 4 and the survivor count (T/C endpoint: mean survival time, dose: 40.0 mg/kg/injection, schedule: Q01DX001 (ip), vehicle: saline) was 0 of 4. The survivor count (T/C endpoint: median survival time, dose: 2.0 mg/kg/injection, schedule: Q01DX005 (ip), vehicle: water) was 3 of 6.
For `CC(C)N(C(=O)COc1ccc(Cl)cc1)c1ccccc1`, the survivor count [6] was 2 of 6.
In the case of `CC(C)(C)c1cc(C[P+](c2ccc(Cl)cc2)(c2ccc(Cl)cc2)c2ccc(Cl)cc2)cc(C(C)(C)C)c1O`, the survivor count [3] is reported as 5 of 6, the survivor count [4] is reported as 4 of 6 and the survivor count [2] is reported as 0 of 6. For the same compound, the survivor count [6] was 3 of 6.
`CN(C)CCN1C(=O)c2ccccc2N(C)c2ccccc21` was tested, and the survivor count (T/C endpoint: mean survival time, dose: 100.0 mg/kg/injection, schedule: Q04DX003 (ip), vehicle: saline) was 3 of 4, the survivor count (T/C endpoint: mean survival time, dose: 200.0 mg/kg/injection, schedule: Q04DX003 (ip), vehicle: saline) was 4 of 4 and the survivor count (T/C endpoint: mean survival time, dose: 400.0 mg/kg/injection, schedule: Q04DX003 (ip), vehicle: saline) was 0 of 4.
For `Cn1cnccc1=S`, the survivor count (T/C endpoint: mean survival time, dose: 100.0 mg/kg/injection, schedule: Q01DX001 (ip), vehicle: saline) was 3 of 6.
For `Cc1ccc(NC(=O)c2c(Br)c(Br)c(Br)c(Br)c2C(=O)O)cc1Cl`, the survivor count [5] was 2 of 6.
`NCCCC(=S)S` was tested, and the survivor count (T/C endpoint: mean survival time, dose: 100.0 mg/kg/injection, schedule: Q04DX002 (ip), vehicle: saline) was 3 of 3.
For `NCCCNCC1C(c2ccccc2)C1c1ccccc1` (stereo not drawn), the survivor count (T/C endpoint: mean survival time, dose: 100.0 mg/kg/injection, schedule: Q04DX002 (ip), vehicle: Klucel (hydroxypropylcellulose) (HPC)) was 0 of 3, the survivor count (T/C endpoint: mean survival time, dose: 200.0 mg/kg/injection, schedule: Q04DX002 (ip), vehicle: Klucel (hydroxypropylcellulose) (HPC)) was 0 of 3 and the survivor count [7] was 0 of 3.
In the case of `O=C(NN1C(=O)c2cccc3cccc(c23)C1=O)NN1C(=O)c2cccc3cccc(c23)C1=O`, the survivor count [7] is reported as 1 of 3.
In the case of `O=P(Oc1ccccc1)(N1CCCCC1)N1CCCCC1`, the T/C [8] is reported as 94 and 104 % of control (2×), the survivor count [8] is reported as 3 of 3 and the T/C (T/C endpoint: mean survival time, dose: 100.0 mg/kg/injection, schedule: Q01DX009 (ip), vehicle: carboxymethylcellulose (CMC)) is reported as 90 [4 of 6 alive], 91, 93, 94 % of control. For the same compound, the survivor count (T/C endpoint: mean survival time, dose: 100.0 mg/kg/injection, schedule: Q04DX003 (ip), vehicle: carboxymethylcellulose (CMC)) was 5 of 6, the survivor count (T/C endpoint: mean survival time, dose: 200.0 mg/kg/injection, schedule: Q01DX009 (ip), vehicle: carboxymethylcellulose (CMC)) was 3 of 3 and 6 of 6 and the survivor count (T/C endpoint: mean survival time, dose: 400.0 mg/kg/injection, schedule: Q04DX002 (ip), vehicle: carboxymethylcellulose (CMC)) was 3 of 3 and 6 of 6. The survivor count (T/C endpoint: mean survival time, dose: 400.0 mg/kg/injection, schedule: Q04DX003 (ip), vehicle: carboxymethylcellulose (CMC)) was 2 of 6.
In the case of `CC1=C(Cl)C(=O)C(Cl)=C(Cl)C1=O`, the survivor count (T/C endpoint: mean survival time, dose: 150.0 mg/kg/injection, schedule: Q01DX001 (ip), vehicle: saline) is reported as 2 of 6 and the survivor count (T/C endpoint: mean survival time, dose: 300.0 mg/kg/injection, schedule: Q01DX001 (ip), vehicle: saline) is reported as 2 of 6.
`CCOc1cc(/C=N\NC(=O)CCCC(=O)N/N=C/c2ccc(O)c(OCC)c2)ccc1O` was tested, and the survivor count (T/C endpoint: mean survival time, dose: 50.0 mg/kg/injection, schedule: Q01DX001 (ip), vehicle: carboxymethylcellulose (CMC)) was 4 of 4, the survivor count (T/C endpoint: mean survival time, dose: 100.0 mg/kg/injection, schedule: Q01DX001 (ip), vehicle: carboxymethylcellulose (CMC)) was 4 of 4 and the survivor count (T/C endpoint: mean survival time, dose: 400.0 mg/kg/injection, schedule: Q01DX001 (ip), vehicle: carboxymethylcellulose (CMC)) was 4 of 4.
